According to the supplement of paper PMC12823440, “Inhibitors supercharge kinase turnover through native proteolytic circuits” (Nature, 2025):
The list shows a part of the results. Hit calls seldom repeat between salt and free forms of one compound.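 Kinases, fused to nanoluciferase, were expressed in K562 cells; luminescence was measured every 4 h from 2 to 18 h as percent of control (DMSO = 100%, positive control = 0%). A time point is decreased if signal falls significantly (2 sigma). Hits were called by the authors by a rule that is not shown; the count of time points alone does not decide it.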

The chains behind the UniProt entries cited, without tags or fusion partners. Where a name states a change or a piece, a line headed by the entry shows the natural chain unless it says otherwise.
UniProt Q15208: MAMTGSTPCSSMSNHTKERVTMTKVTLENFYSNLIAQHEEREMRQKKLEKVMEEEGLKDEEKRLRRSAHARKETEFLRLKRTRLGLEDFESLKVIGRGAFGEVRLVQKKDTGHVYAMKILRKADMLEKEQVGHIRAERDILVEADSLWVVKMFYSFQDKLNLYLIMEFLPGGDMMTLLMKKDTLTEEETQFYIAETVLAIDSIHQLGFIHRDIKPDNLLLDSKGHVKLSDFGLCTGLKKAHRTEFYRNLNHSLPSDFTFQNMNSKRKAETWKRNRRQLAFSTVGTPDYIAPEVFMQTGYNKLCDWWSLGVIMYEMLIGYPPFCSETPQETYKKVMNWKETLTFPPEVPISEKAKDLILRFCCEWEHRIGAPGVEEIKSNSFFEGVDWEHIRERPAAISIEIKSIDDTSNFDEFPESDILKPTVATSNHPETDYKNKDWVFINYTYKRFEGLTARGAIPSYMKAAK

What follows are molecules tested against STK38 (UniProt Q15208) (assay: number of time points (of 5) at which kinase-Nluc abundance scored as decreased, DMSO-normalised (count); higher = more persistent destabilization). Conditions: K562; 2-18 h.

SMILES	number of time points
O=c1cc(-c2ccc(O[C@@H]3O[C@H](CO)[C@@H](O)[C@H](O)[C@H]3O)cc2)oc2cc(O)c([C@@H]3O[C@H](CO)[C@@H](O)[C@H](O)[C@H]3O[C@@H]3OC[C@H](O)[C@H](O)[C@H]3O)c(O)c12 [Vaccarin] (10 µM)	0
Nc1ccc(Sc2nc3ccccc3s2)c(Cl)c1 [KRAS inhibitor-9] (10 µM)	0
COc1ccc2cc1Oc1ccc(cc1)C[C@H]1c3cc(c(OC)cc3CCN1C)Oc1c(O)c(OC)cc3c1[C@H](C2)N(C)CC3 [Fangchinoline] (2.5 µM)	0
Nc1nccc(Oc2ccc3c(C(=O)Nc4cccc(C(F)(F)F)c4)cccc3c2)n1 (10 µM)	0
CN1C(=O)N[C@@H](Cc2c[nH]c3c(Cl)cccc23)C1=O [Necrostatin 2 (S enantiomer)] (10 µM)	0
Cc1ncc(-c2cc(F)c(O)c(F)c2)cc1-c1cc(F)c(O)c(F)c1 (10 µM)	0
N=C(NC(=N)N1CCCC1)Nc1ccc(OC(F)(F)F)cc1 (10 µM)	0
